The other results are listed elsewhere or left out.
How the values were obtained:
Assay in all cases: glycan array binding signal (z-score within array); higher = stronger binding
Conditions in all cases: glycan notation: IUPAC condensed, linker removed
[1] = molecular target: Fuc(a1-2)Gal6S(b1-3)GlcNAc
In short: (§1)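 Negative Z-scores can be read as non-binding. The Z-score is calculated within each array and then averaged across arrays of one protein sequence at different concentrations or buffers and across linkers. Arrays, 3228 in all, were curated from the Consortium for Functional Glycomics database and kept only where the protein sequence was available.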

[2] = molecular target: Fuc(a1-2)Gal6S(b1-3)GlcNAc6S
In short: as §1

[3] = molecular target: Fuc(a1-2)Gal6S(b1-4)Glc
In short: as §1

[4] = molecular target: Fuc(a1-2)Gal6S(b1-4)Glc6S
In short: as §1

[5] = molecular target: Fuc(a1-2)[Gal(a1-3)]Gal
In short: as §1

[6] = molecular target: Fuc(a1-2)[Gal(a1-3)]Gal(b1-3)GalNAc
In short: as §1

[7] = molecular target: Fuc(a1-2)[Gal(a1-3)]Gal(b1-3)GalNAc(b1-3)Gal(a1-4)Gal(b1-4)Glc
In short: as §1

[8] = molecular target: Fuc(a1-2)[Gal(a1-3)]Gal(b1-3)GlcNAc
In short: as §1

[9] = molecular target: Fuc(a1-2)[Gal(a1-3)]Gal(b1-3)GlcNAc(b1-2)Man(a1-3)[Fuc(a1-2)[Gal(a1-3)]Gal(b1-3)GlcNAc(b1-2)Man(a1-6)]Man(b1-4)GlcNAc(b1-4)GlcNAc
In short: as §1

[10] = molecular target: Fuc(a1-2)[Gal(a1-3)]Gal(b1-3)GlcNAc(b1-2)Man(a1-3)[Fuc(a1-2)[Gal(a1-3)]Gal(b1-3)GlcNAc(b1-2)Man(a1-6)]Man(b1-4)GlcNAc(b1-4)[Fuc(a1-6)]GlcNAc
In short: as §1

[11] = molecular target: Fuc(a1-2)[Gal(a1-3)]Gal(b1-3)GlcNAc(b1-3)GalNAc
In short: as §1

[12] = molecular target: Fuc(a1-2)[Gal(a1-3)]Gal(b1-3)GlcNAc(b1-6)GalNAc
In short: as §1

[13] = molecular target: Fuc(a1-2)[Gal(a1-3)]Gal(b1-4)Glc
In short: as §1

[14] = molecular target: Fuc(a1-2)[Gal(a1-3)]Gal(b1-4)GlcNAc
In short: as §1

[15] = molecular target: Fuc(a1-2)[Gal(a1-3)]Gal(b1-4)GlcNAc(b1-2)Man
In short: as §1

[16] = molecular target: Fuc(a1-2)[Gal(a1-3)]Gal(b1-4)GlcNAc(b1-2)Man(a1-3)[Fuc(a1-2)[Gal(a1-3)]Gal(b1-4)GlcNAc(b1-2)Man(a1-6)]Man(b1-4)GlcNAc(b1-4)GlcNAc
In short: as §1

[17] = molecular target: Fuc(a1-2)[Gal(a1-3)]Gal(b1-4)GlcNAc(b1-2)Man(a1-3)[Fuc(a1-2)[Gal(a1-3)]Gal(b1-4)GlcNAc(b1-2)Man(a1-6)]Man(b1-4)GlcNAc(b1-4)[Fuc(a1-6)]GlcNAc
In short: as §1

[18] = molecular target: Fuc(a1-2)[Gal(a1-3)]Gal(b1-4)GlcNAc(b1-3)GalNAc
In short: as §1

[19] = molecular target: Fuc(a1-2)[Gal(a1-3)]Gal(b1-4)GlcNAc(b1-3)[Fuc(a1-2)[Gal(a1-3)]Gal(b1-4)GlcNAc(b1-6)]GalNAc
In short: as §1

[20] = molecular target: Fuc(a1-2)[Gal(a1-3)]Gal(b1-4)GlcNAc(b1-6)GalNAc
In short: as §1

[21] = molecular target: Fuc(a1-2)[Gal(a1-3)]Gal(b1-4)[Fuc(a1-3)]Glc
In short: as §1

[22] = molecular target: Fuc(a1-2)[Gal(a1-3)]Gal(b1-4)[Fuc(a1-3)]GlcNAc
In short: as §1

[23] = molecular target: Fuc(a1-2)[Gal(a1-3)]Gal(b1-4)[Fuc(a1-3)]GlcNAc(b1-3)GalNAc
In short: as §1

[24] = molecular target: Fuc(a1-2)[Gal(a1-4)]Gal(b1-4)GlcNAc
In short: as §1

[25] = molecular target: Fuc(a1-2)[GalNAc(a1-3)]Gal
In short: as §1

[26] = molecular target: Fuc(a1-2)[GalNAc(a1-3)]Gal(b1-3)GalNAc(a1-3)[Fuc(a1-2)]Gal(b1-4)GlcNAc
In short: as §1

[27] = molecular target: Fuc(a1-2)[GalNAc(a1-3)]Gal(b1-3)GalNAc(b1-3)Gal(a1-4)Gal(b1-4)Glc
In short: as §1

[28] = molecular target: Fuc(a1-2)[GalNAc(a1-3)]Gal(b1-3)GlcNAc
In short: as §1

[29] = molecular target: Fuc(a1-2)[GalNAc(a1-3)]Gal(b1-3)GlcNAc(b1-2)Man(a1-3)[Fuc(a1-2)[GalNAc(a1-3)]Gal(b1-3)GlcNAc(b1-2)Man(a1-6)]Man(b1-4)GlcNAc(b1-4)GlcNAc
In short: as §1

[30] = molecular target: Fuc(a1-2)[GalNAc(a1-3)]Gal(b1-3)GlcNAc(b1-2)Man(a1-3)[Fuc(a1-2)[GalNAc(a1-3)]Gal(b1-3)GlcNAc(b1-2)Man(a1-6)]Man(b1-4)GlcNAc(b1-4)[Fuc(a1-6)]GlcNAc
In short: as §1

[31] = molecular target: Fuc(a1-2)[GalNAc(a1-3)]Gal(b1-3)GlcNAc(b1-3)GalNAc
In short: as §1

[32] = molecular target: Fuc(a1-2)[GalNAc(a1-3)]Gal(b1-3)GlcNAc(b1-6)GalNAc
In short: as §1

[33] = molecular target: Fuc(a1-2)[GalNAc(a1-3)]Gal(b1-4)Glc
In short: as §1

[34] = molecular target: Fuc(a1-2)[GalNAc(a1-3)]Gal(b1-4)GlcNAc
In short: as §1

[35] = molecular target: Fuc(a1-2)[GalNAc(a1-3)]Gal(b1-4)GlcNAc(b1-2)Man
In short: as §1

[36] = molecular target: Fuc(a1-2)[GalNAc(a1-3)]Gal(b1-4)GlcNAc(b1-2)Man(a1-3)[Fuc(a1-2)[GalNAc(a1-3)]Gal(b1-4)GlcNAc(b1-2)Man(a1-6)]Man(b1-4)GlcNAc(b1-4)GlcNAc
In short: as §1

[37] = molecular target: Fuc(a1-2)[GalNAc(a1-3)]Gal(b1-4)GlcNAc(b1-2)Man(a1-3)[Fuc(a1-2)[GalNAc(a1-3)]Gal(b1-4)GlcNAc(b1-2)Man(a1-6)]Man(b1-4)GlcNAc(b1-4)[Fuc(a1-6)]GlcNAc
In short: as §1

[38] = molecular target: Fuc(a1-2)[GalNAc(a1-3)]Gal(b1-4)GlcNAc(b1-3)Gal(b1-4)GlcNAc
In short: as §1

[39] = molecular target: Fuc(a1-2)[GalNAc(a1-3)]Gal(b1-4)GlcNAc(b1-3)Gal(b1-4)GlcNAc(b1-3)Gal(b1-4)GlcNAc
In short: as §1

[40] = molecular target: Fuc(a1-2)[GalNAc(a1-3)]Gal(b1-4)GlcNAc(b1-3)GalNAc
In short: as §1

[41] = molecular target: Fuc(a1-2)[GalNAc(a1-3)]Gal(b1-4)GlcNAc(b1-3)[Fuc(a1-2)[GalNAc(a1-3)]Gal(b1-4)GlcNAc(b1-6)]GalNAc
In short: as §1

[42] = molecular target: Fuc(a1-2)[GalNAc(a1-3)]Gal(b1-4)GlcNAc(b1-6)GalNAc
In short: as §1

[43] = molecular target: Fuc(a1-2)[GalNAc(a1-3)]Gal(b1-4)[Fuc(a1-3)]GlcNAc
In short: as §1

[44] = molecular target: Fuc(a1-2)[GalNAc(a1-3)]Gal(b1-4)[Fuc(a1-3)]GlcNAc(b1-3)GalNAc
In short: as §1

[45] = molecular target: Fuc(a1-2)[GalNAc(a1-4)]Gal(b1-4)GlcNAc
In short: as §1

B1: Epa11 (Candida glabrata) (protein)
chain: MGSSHHHHHHSSGLVPRGSHMASSNAPNYPVGCSPSVGTQLTPGLSLEVYAYPMDGNNGYCWNATYKDPEFPRSGYLKNKLLGKADGVVGPLNFLAKNKDCSPKVDTLPAGFNFPQPITVTNFTMVLFGYLAPKQSGKYTFKLLADDLLLLNLGATNAFDCCNREATKNNLGEFLAYNLWPNQDKNVTVYLEKGVYYPLRLFFNNRDGGSQLDFSYYFNDSPAPLTDFSGMFFSVPDGAECPARI
- glycan array binding signal (z-score) [1]: -0.008
- glycan array binding signal (z-score) [2]: 0.849
- glycan array binding signal (z-score) [3]: -0.233
- glycan array binding signal (z-score) [4]: -0.331
- glycan array binding signal (z-score) [5]: -0.25
- glycan array binding signal (z-score) [6]: -0.026
- glycan array binding signal (z-score) [7]: -0.292
- glycan array binding signal (z-score) [8]: -0.198
- glycan array binding signal (z-score) [9]: 0.056
- glycan array binding signal (z-score) [10]: -0.041
- glycan array binding signal (z-score) [11]: -0.09
- glycan array binding signal (z-score) [12]: -0.191
- glycan array binding signal (z-score) [13]: -0.265
- glycan array binding signal (z-score) [14]: -0.408
- glycan array binding signal (z-score) [15]: 0.436
- glycan array binding signal (z-score) [16]: 0.729
- glycan array binding signal (z-score) [17]: -0.618
- glycan array binding signal (z-score) [18]: 0.18
- glycan array binding signal (z-score) [19]: 0.517
- glycan array binding signal (z-score) [20]: 1.23
- glycan array binding signal (z-score) [21]: -0.081
- glycan array binding signal (z-score) [22]: 0.319
- glycan array binding signal (z-score) [23]: -0.151
- glycan array binding signal (z-score) [24]: 0.294
- glycan array binding signal (z-score) [25]: -0.146
- glycan array binding signal (z-score) [26]: -0.24
- glycan array binding signal (z-score) [27]: 0.521
- glycan array binding signal (z-score) [28]: -0.018
- glycan array binding signal (z-score) [29]: -0.435
- glycan array binding signal (z-score) [30]: 0.53
- glycan array binding signal (z-score) [31]: 1.2
- glycan array binding signal (z-score) [32]: -0.276
- glycan array binding signal (z-score) [33]: -0.209
- glycan array binding signal (z-score) [34]: 0.226
- glycan array binding signal (z-score) [35]: -0.682
- glycan array binding signal (z-score) [36]: 0.366
- glycan array binding signal (z-score) [37]: 0.141
- glycan array binding signal (z-score) [38]: -0.643
- glycan array binding signal (z-score) [39]: 0.345
- glycan array binding signal (z-score) [40]: -0.691
- glycan array binding signal (z-score) [41]: -0.399
- glycan array binding signal (z-score) [42]: -0.327
- glycan array binding signal (z-score) [43]: -0.101
- glycan array binding signal (z-score) [44]: 1.68
- glycan array binding signal (z-score) [45]: -0.317

From the supplement of paper PMC8728848
